Source: PubChem BioAssay AID1487 (National Center for Advancing Translational Sciences (NCATS), 2009)
Values joined by “and” are separate entries in the source; they are usually repeats but may differ in a detail not shown here. Equal values may be shown once. The list shows a part of the results. Further columns of the screen follow, without active or inactive calls. Most of these compounds were active or inconclusive in the main read-out, so they are no random draw. The note in brackets gives the kind of curve behind each potency; many fits are weak.

Assay: qHTS Assay for Modulators of Lamin A Splicing
Conditions: HeLa LMNA splicing GFP/RFP minigene ratio, 48 h
In short: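 S3 HeLa cells stably expressing lamin A-EGFP splicing minigene plus DsRed2, 600 cells/well, 48 h compound exposure at 37C. Laser-scanning cytometry; analysed as GFP (500-530 nm)/RFP (575-640 nm) total intensity ratio; 0.5% DMSO vehicle.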

[1] = measured here: RFP viability control channel
[2] = measured here: GFP splicing reporter channel

Row | SMILES | AC50 [1] | AC50 [2]
1 | O=C(/C=C/c1cccs1)Nc1cccc(NC(=O)/C=C/c2cccs2)n1 | 35.5 µM [rising, single point] | 
2 | COc1ccc(Cc2nc(-c3ccc(-n4cccc4)cc3)no2)cc1 | 35.5 µM [rising, single point] | 
3 | COc1ccc(CCN2C(=S)NC3CC2(C)Oc2ccc([N+](=O)[O-])cc23)cc1OC (stereo not drawn) | 14.1 µM [rising, single point] | 
4 | NNC(=O)CSCc1nc(-c2ccccc2)cs1 | 0.501 µM [falling, full curve] | 
5 | Cc1ccc(Nc2nc(-c3ccccc3)nc3ccccc23)cc1 | 20 µM [falling, partial curve, poor fit] | 35.5 µM [falling, partial curve]
6 | CCc1cccc(CC)c1NC(=S)NCCc1c(C)[nH]c2ccccc12 |  | 5.62 µM [falling, single point]
7 | CC(C)(C)c1ccc(S(=O)(=O)Nc2cccc(C3OCCCO3)c2)cc1 | 14.1 µM [rising, partial curve] | 
8 | COc1ccc(NC(=O)c2ccc(-c3ccc(OC)cc3)s2)cc1 | 35.5 µM [falling, single point] | 1.58 µM [falling, full curve, poor fit]
9 | Cc1ccc(S(=O)(=O)NC(=O)NN2CCCCCC2)cc1 |  | 2 nM [falling, full curve, poor fit] and 14.1 µM [rising, single point] and 17.8 µM [rising, partial curve, poor fit]
10 | O=C1CCc2cc(S(=O)(=O)NCCC(=O)N3CCN(c4cccc(Cl)c4)CC3)ccc2N1 | 35.5 µM [rising, single point] | 
11 | O=C(Cn1c(-c2cccs2)cc2ccccc21)N1CCN(c2ccc(Cl)cc2)CC1 |  | 0.0224 µM [rising, full curve, poor fit]
12 | COc1ccc(-c2cn3c(n2)sc2cc(C(=O)NCCC4=CCCCC4)ccc23)cc1 |  | 0.0224 µM [rising, full curve]
13 | Brc1ccc(-c2nc(N/N=C/c3cccnc3)c3ccccc3n2)cc1 | 15.8 µM [rising, single point] | 17.8 µM [rising, single point]
14 | O=C(NC(=S)Nc1ccccc1Cl)c1csnn1 | 1.12 µM [rising, full curve] | 0.891 µM [rising, full curve]
15 | CCCCn1c(SCc2nnc(-c3ccccc3)o2)nc2c1c(=O)n(C)c(=O)n2C | 4.47 µM [rising, partial curve] | 
16 | CCC1=NN(C(=O)c2ccc(Br)cc2)C(O)(c2ccc(C)cc2)C1 (stereo not drawn) | 35.5 µM [rising, single point] | 
17 | COc1cc(NC(=O)Nc2ccccc2OC)c(OC)cc1NC(=O)CN1CCCCC1 | 15.8 µM [falling, single point] | 12.6 µM [falling, single point]
18 | N#C/C(=C/c1ccc(N2CCCCC2)o1)C(=O)Nc1ccc2ccccc2c1 | 3.55 µM [falling, full curve] | 3.98 µM [falling, full curve]
19 | COCCCN1CN(S(=O)(=O)c2ccc(Cl)cc2)c2nc3ccccc3nc21 | 12.6 µM [rising, single point] | 35.5 µM [rising, single point]
20 | Cc1ccc([N+](=O)[O-])cc1S(=O)(=O)n1ccnc1C |  | 35.5 µM [falling, single point]
21 | Cc1ccc(C)n1CCN1CCN(CC(=O)Nc2ccc(S(N)(=O)=O)cc2)CC1 |  | 1.26 µM [rising, partial curve, poor fit]
22 | CCN(CC)S(=O)(=O)c1ccc(C(=O)NNC(=O)c2cccs2)cc1 | 2 µM [rising, full curve] | 
23 | N/C(=N\c1nc(CSc2nnnn2-c2ccccc2)cc(=O)[nH]1)Nc1ccccc1 | 0.00355 µM [falling, full curve, poor fit] | 0.00316 µM [falling, full curve, poor fit]
24 | COc1ccc(C2c3[nH]c4ccccc4c3CCN2Cc2ccoc2)c(F)c1 (stereo not drawn) | 25.1 µM [rising, partial curve] | 
25 | O=C(O)C1CC=CCC1C(=O)Nc1ccc(Oc2ccc(Cl)cc2)cc1 (stereo not drawn) | 15.8 µM [rising, single point] | 
26 | COc1cc2c(CCNC(C)=O)c[nH]c2cc1Cl | 0.001 µM [falling, full curve, poor fit] | 
27 | CCN(CC)S(=O)(=O)c1ccc(Cl)c(C(=O)Nc2cc(C)nn2-c2ccccc2C(F)(F)F)c1 | 31.6 µM [rising, single point] | 12.6 µM [rising, single point]

Row | SMILES | AC50 [1] | AC50 [2]
28 | O=C1C=C(c2ccc(Cl)cc2)C(=O)N1Nc1ccccc1 | 14.1 µM [falling, partial curve] | 14.1 µM [falling, single point]
29 | Cc1cc(Br)cc(C)c1NC(=O)c1sc2ncn(Cc3cccc(F)c3)c(=O)c2c1C | 0.00316 µM [falling, full curve, poor fit] | 
30 | CN(C)c1ccc(/C=N/N=C2/NC(=O)/C(=C/c3ccc([N+](=O)[O-])cc3)S2)cc1 |  | 12.6 µM [rising, partial curve]
31 | CCn1c(SC(C)C)nnc1-c1cc(-c2ccccc2)sc1N | 20 µM [rising, partial curve] | 12.6 µM [rising, partial curve]
32 | CCCCn1c2c(c(=N)c3c1CCC3)CCC2 | 2.82 µM [rising, partial curve] | 
33 | Cc1ccc(NC(=O)CCn2c(=O)c3cccn3c3ccccc32)cc1Cl | 3.98 µM [rising, full curve, poor fit] | 7.08 µM [rising, partial curve, poor fit]
34 | COc1cccc(C2CC(c3c(-c4ccccc4)c4cc(Cl)ccc4[nH]c3=O)=NN2S(C)(=O)=O)c1OC (stereo not drawn) | 35.5 µM [rising, single point] | 
35 | O=S(=O)(c1ccc(Br)cc1)N1CCCN(Cc2ccccc2F)CC1 | 35.5 µM [rising, single point] | 15.8 µM [rising, single point]
36 | O=C(Nc1ccccc1)c1ccc(Nc2c([N+](=O)[O-])cc([N+](=O)[O-])c3ccccc23)cc1 | 12.6 µM [rising, partial curve] | 3.98 µM [rising, partial curve]
37 | COc1ccc2c(c1)sc1nc(-c3ccccc3)cn12 | 2 µM [rising, full curve, poor fit] | 
38 | O=C(NCc1cccnc1)c1nc(-c2cccs2)no1 | 0.0316 µM [falling, full curve, poor fit] | 0.0708 µM [falling, full curve, poor fit]
39 | Cc1ccccc1OCc1nc2ccccc2c(=O)n1/N=C/c1cn[nH]c1-c1ccc(Br)cc1 | 12.6 µM [rising, partial curve, poor fit] | 6.31 µM [rising, full curve, poor fit]
40 | CC(C)OCCCNC(=S)Nc1ccc(S(N)(=O)=O)cc1 |  | 6.31 µM [rising, single point]
41 | COc1ccc(C(=O)c2c(C)oc3cc([N+](=O)[O-])c(O)c([N+](=O)[O-])c23)cc1 | 12.6 µM [rising, partial curve, poor fit] | 15.8 µM [rising, partial curve, poor fit]
42 | Cc1ccc(-n2ncc3c(Nc4cccc(C(F)(F)F)c4)ncnc32)cc1C | 22.4 µM [falling, partial curve, poor fit] | 17.8 µM [falling, partial curve]
43 | C/C(CC(=O)NCc1ccco1)=N\NC(=O)CC#N |  | 0.00708 µM [rising, full curve, poor fit]
44 | COC(=O)c1c(-c2ccc(C)cc2)csc1NC(=O)c1c(-c2ccccc2)noc1C | 7.08 µM [rising, full curve] | 
45 | C=CCn1c(=NC(=O)c2ccco2)sc2cc(C(=O)OCC)ccc21 | 3.16 µM [rising, single point] | 
46 | CCOC(=O)c1ccc(NS(=O)(=O)c2ccc(Cl)nc2)cc1 |  | 3.55 µM [falling, partial curve, poor fit]
47 | NS(=O)(=O)c1ccc(NC(=O)c2csnn2)cc1 |  | 0.794 µM [falling, full curve]
48 | COc1ccc(OCC2c3cc(OC)c(OC)cc3CCN2C(=O)c2c(F)cccc2F)cc1 (stereo not drawn) | 11.2 µM [rising, single point] | 
49 | O=C(c1ccc(Cl)c(Cl)c1)c1cc(-c2ccccn2)c(N2CCOCC2)s1 | 11.2 µM [falling, partial curve, poor fit] | 11.2 µM [falling, partial curve, poor fit]
50 | Cc1c(/C=C/C(=O)c2ccc(C(C)C)cc2)cnn1C | 3.55 µM [rising, partial curve] | 6.31 µM [rising, partial curve, poor fit]
51 | CC1CN(S(=O)(=O)c2cccc(-c3cn4cccnc4n3)c2)CC(C)O1 (stereo not drawn) | 0.00501 µM [rising, full curve, poor fit] | 
52 | C=CCN1C(=O)/C(=N/n2cnnc2)c2ccccc21 | 3.55 µM [falling, partial curve] | 
53 | Cc1ccc(NC(=O)c2ccc(Nc3c([N+](=O)[O-])cc([N+](=O)[O-])cc3[N+](=O)[O-])cc2)cc1 | 3.55 µM [falling, single point] | 
